Results: patent US20100068181A1, “PYRROLO [3, 2-A] PYRIDINE DERIVATIVES FOR INHIBITING KSP KINESIN ACTIVITY” (Schering Corporation, priority 2006, published 2010)
The structures given here were assigned with low confidence; some may be wrong.

Chains of the proteins cited; added tags and fusions are not shown.
UniProt P52732, whole entry: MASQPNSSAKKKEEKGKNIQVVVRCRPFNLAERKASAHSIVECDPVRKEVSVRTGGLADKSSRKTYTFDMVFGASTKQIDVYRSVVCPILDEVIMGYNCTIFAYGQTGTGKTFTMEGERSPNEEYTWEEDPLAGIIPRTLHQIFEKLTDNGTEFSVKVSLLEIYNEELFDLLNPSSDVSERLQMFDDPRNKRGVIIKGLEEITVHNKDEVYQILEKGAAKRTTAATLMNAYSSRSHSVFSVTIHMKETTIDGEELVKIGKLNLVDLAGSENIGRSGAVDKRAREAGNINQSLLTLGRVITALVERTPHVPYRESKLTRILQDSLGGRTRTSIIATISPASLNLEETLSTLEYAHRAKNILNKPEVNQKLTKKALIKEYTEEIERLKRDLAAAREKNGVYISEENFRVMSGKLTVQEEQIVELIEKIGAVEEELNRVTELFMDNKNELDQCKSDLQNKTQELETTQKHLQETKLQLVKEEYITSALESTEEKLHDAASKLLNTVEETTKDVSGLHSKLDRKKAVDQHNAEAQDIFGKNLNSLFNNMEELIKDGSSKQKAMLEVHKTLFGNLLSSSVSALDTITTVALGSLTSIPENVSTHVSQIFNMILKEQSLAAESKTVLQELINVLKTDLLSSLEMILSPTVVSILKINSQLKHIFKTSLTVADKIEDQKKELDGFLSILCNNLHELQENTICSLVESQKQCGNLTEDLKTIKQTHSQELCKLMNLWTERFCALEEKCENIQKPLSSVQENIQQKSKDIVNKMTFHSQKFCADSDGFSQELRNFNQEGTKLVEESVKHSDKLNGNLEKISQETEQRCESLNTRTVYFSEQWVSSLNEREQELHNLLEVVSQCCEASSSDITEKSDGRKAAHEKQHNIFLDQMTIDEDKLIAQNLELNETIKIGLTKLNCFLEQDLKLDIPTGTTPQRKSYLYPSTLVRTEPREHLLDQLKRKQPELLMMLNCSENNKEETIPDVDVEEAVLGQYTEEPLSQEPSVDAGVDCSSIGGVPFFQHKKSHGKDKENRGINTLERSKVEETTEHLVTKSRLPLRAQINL

Molecular target: KSP (Homo sapiens, UniProt P52732)
Assay: KSP inhibitory activity, end-point assay
Conditions: read-out: IC50 Rating; KSP inhibitory activity based on end-point assay

CC(C)(C)C1CCc2nc3c(CCCCO)c(C(=O)NCCN)[nH]c3cc2C1 (stereo not shown)
IC50: 100 to 1000 nM
